Laboratory results taken from doi:10.1101/2020.09.06.284745.
No constants are given. Whether binding was seen depends on the method and setting. A result given as binding can be weak or reduced; the word gives no strength.

How the values were obtained:
Assay in all cases: two-hybrid
[1] = molecular target: SnRK1α1 regulatory domain (RD) (Arabidopsis thaliana)
[2] = molecular target: SnRK1α1 catalytic domain (CD) (Arabidopsis thaliana)
[3] = molecular target: RAPTOR1B Raptor N-terminal CASPase-like (RNC) domain (Arabidopsis thaliana)
[4] = molecular target: RAPTOR1B WD40 repeats (C-terminus) (Arabidopsis thaliana)

binding [1]: binds
binding [2]: binds
binding [3]: binds
binding [4]: binds
B1: FCS-Like Zinc Finger 8 (FLZ8) (protein, UniProt Q8L471 1-267)
chain: MLKKRSRSKQALMAETNQSQNQKQSKTTPFPRLFTAFSSFKSFTENDAVASPTSILDTKPFSVLKNPFGSDNPKTQEPETRLKLEPKRIGLAIVDSLIQDETPEPGPRSGTILFGSQLRIRVPDSPISSSDFGIKTRNSQPETKKPGSESGLGSPRIISGYFPASDMELSEDYTCVTCHGPNPRTIHIFDNCIVESQPGVVFFRSSDPVNESDSDYSPPDSFLSCCCNCKKSLGPRDDIFMYRGDRAFCSSECRSIEMMMSEENDTK
